Binding data for 1 substance are collected here from patent US20180207240A1.

Sequences of proteins named here, by UniProt entry; tags and fusion partners are left off. A change or cut given only in a name is not applied to a line headed by its entry.
UniProt P02463: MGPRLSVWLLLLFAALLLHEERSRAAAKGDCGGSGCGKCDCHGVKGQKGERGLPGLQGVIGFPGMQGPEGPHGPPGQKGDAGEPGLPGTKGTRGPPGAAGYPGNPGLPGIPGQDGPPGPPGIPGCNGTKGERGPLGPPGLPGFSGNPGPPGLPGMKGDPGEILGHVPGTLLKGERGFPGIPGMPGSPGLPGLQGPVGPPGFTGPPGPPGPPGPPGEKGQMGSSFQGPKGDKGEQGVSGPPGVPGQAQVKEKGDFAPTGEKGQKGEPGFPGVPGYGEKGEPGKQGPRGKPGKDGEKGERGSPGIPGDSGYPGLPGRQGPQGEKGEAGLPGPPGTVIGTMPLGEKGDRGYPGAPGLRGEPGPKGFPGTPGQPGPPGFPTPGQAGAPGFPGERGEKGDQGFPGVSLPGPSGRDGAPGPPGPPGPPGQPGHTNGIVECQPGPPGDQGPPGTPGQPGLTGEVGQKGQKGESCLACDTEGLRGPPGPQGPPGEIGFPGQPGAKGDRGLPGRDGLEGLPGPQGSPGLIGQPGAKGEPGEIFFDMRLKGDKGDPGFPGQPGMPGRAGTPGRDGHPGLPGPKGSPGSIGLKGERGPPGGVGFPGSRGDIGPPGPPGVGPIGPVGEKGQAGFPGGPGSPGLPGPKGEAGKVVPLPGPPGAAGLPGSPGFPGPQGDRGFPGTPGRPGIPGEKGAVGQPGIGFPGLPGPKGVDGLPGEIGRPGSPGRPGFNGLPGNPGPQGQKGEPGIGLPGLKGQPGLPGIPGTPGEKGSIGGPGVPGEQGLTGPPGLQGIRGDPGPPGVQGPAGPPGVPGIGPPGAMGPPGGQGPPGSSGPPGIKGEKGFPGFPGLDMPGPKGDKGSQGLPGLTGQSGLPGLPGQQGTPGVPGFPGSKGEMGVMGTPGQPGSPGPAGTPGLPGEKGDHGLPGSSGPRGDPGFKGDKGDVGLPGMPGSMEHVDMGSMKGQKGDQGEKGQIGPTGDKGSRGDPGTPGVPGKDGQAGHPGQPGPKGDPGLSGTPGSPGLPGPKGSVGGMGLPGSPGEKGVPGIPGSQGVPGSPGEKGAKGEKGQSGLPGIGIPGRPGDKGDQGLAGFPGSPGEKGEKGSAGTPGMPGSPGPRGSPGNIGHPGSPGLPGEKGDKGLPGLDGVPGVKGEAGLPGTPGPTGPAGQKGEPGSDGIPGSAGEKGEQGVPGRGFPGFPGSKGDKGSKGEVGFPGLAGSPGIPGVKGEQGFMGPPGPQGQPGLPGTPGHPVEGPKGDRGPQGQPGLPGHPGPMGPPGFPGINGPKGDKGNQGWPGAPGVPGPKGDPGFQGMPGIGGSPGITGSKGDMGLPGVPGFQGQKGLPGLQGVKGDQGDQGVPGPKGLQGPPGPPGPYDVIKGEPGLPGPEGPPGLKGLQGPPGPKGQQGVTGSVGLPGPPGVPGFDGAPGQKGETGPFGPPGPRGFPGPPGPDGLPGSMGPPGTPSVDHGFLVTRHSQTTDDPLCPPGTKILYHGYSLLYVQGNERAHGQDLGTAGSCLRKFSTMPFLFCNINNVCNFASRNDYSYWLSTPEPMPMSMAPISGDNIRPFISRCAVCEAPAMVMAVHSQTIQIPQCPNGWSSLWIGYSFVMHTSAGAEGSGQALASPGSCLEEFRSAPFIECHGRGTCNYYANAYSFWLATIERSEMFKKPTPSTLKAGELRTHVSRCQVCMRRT
UniProt P08122: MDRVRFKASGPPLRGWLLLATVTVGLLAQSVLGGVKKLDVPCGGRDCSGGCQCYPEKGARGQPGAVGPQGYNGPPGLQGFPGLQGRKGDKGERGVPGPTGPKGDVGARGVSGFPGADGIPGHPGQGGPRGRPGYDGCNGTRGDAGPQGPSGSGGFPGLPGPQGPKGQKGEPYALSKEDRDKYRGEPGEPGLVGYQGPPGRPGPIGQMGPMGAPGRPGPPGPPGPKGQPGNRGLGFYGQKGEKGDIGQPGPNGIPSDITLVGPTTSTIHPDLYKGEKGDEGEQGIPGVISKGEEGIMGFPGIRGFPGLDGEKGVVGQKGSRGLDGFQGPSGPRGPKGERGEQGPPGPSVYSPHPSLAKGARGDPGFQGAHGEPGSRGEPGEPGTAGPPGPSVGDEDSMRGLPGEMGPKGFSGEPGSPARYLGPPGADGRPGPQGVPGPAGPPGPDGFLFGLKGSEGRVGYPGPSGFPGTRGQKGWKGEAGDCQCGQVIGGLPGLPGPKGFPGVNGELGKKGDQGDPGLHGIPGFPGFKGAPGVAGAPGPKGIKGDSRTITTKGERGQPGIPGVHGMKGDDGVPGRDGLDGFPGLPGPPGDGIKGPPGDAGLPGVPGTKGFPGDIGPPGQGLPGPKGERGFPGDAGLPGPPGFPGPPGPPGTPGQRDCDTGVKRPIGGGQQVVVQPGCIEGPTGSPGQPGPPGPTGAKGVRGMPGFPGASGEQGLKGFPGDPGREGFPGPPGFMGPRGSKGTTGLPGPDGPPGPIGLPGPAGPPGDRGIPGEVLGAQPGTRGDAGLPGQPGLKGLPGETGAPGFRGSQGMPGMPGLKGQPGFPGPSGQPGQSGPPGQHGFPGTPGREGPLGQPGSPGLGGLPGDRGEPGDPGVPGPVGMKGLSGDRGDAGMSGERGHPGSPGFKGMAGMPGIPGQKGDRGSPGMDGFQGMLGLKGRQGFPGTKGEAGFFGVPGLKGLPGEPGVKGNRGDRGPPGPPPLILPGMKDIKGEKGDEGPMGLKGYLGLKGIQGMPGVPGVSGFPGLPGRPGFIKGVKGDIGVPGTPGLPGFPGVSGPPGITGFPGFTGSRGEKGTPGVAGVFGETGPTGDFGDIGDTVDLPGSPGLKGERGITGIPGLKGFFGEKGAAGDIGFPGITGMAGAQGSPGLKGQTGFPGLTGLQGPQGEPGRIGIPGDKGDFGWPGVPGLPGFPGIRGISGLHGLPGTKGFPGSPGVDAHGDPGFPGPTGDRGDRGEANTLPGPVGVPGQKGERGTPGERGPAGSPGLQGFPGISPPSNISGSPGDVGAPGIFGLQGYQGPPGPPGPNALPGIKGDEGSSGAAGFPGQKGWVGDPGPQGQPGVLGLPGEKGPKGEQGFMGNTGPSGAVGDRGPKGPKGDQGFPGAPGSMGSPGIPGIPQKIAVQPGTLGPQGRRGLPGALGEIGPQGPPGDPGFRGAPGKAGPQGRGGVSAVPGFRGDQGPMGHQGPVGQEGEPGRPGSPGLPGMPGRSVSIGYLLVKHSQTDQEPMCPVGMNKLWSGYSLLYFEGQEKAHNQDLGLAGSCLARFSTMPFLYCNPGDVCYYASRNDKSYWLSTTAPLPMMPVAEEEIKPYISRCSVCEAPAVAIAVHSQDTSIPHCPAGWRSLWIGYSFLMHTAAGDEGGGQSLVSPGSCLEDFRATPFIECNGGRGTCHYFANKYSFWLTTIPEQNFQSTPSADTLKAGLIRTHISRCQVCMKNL

This experiment addresses Purified Col4 (α1(2)α2) proteins from mouse (Cat. No. sc-29010, Santa Cruz) (mouse) (UniProt P02463+P08122). The experiment in a line: denaturing and native PAGE of the preparation, self-association.

These are yes or no findings as the source states them, for the method shown. Some binding calls cover weakened binding; strength is not graded here.

For “Purified Col4 (α1(2)α2) proteins from mouse (Cat. No. sc-29010, Santa Cruz) (from UniProt P02463 28-1669; P08122 26-1707)”, the binding result was “binds”.
